PubChem BioAssay AID720505 – Drosophila RNAi Screening Center | 2013
The screen tested about 20,000 reagents; shown is a random part of those with a known target gene and a result. Of all reagents, about 2,100 (10%) were called active. 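Raw plate signals without normalisation; calls rest on control-based scores that were not deposited; replicate 2 separates called from uncalled poorly.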 Unmarked entries are inactive. Reagents against one gene are numbered here. Names joined by + are all predicted targets of the reagent. Not stated in the record: the amount of reagent, the time to read-out.

Screen: 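Fly regulators or components of the CRAC channel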 (primary screen)
System: Drosophila S2R+ cells
Reagent: long dsRNA against Drosophila genes
Conditions: thapsigargin (2 µM) in calcium-free buffer to empty internal stores, then 2 mM calcium added back
Measurement: 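Stores emptied by 2 µM thapsigargin without calcium, then 2 mM calcium re-added; fluo-4 fluorescence followed by FLIPR in 384-well plates, per-well averaged endpoint, raw; two screen passes, some wells retested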
Reading the numbers: calcium signal and retest calcium signal: higher = more calcium entry after store depletion
Rule for the call: 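About 1500 genes called as lowering calcium entry, by varying amounts, judged against per-plate control wells with STIM1 as positive and Rho1 as negative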
Meaning of the calls: active = called as lowering calcium entry; inactive = not called

Gene	reagent	calcium signal, replicate 1	calcium signal, replicate 2	retest calcium signal, replicate 1	retest calcium signal, replicate 2
wech	1	59.8 (active)	152		
CG8888	1	220	127		
CG8888	2	110	133		
Cpsf100	1	84.6	110		
Pdk	1	148	114		
OtopLa	1	100	77.8	8255	141
OtopLa	2	190	88.9		
OtopLa	3	124	150		
enok	1	153	74.5		
numb	1	89.6	117		
kn	1	75	113	8304	101
kn	2	94.3	118		
kn	3	101	179		
kn	4	169	178		
kn	5	192	109		
CycA	1	62.1 (active)	62.1		
cic	1	165	149		
cic	2	168	116		
cic	3	113	85		
cic	4	257	122		
cic	5	91.9	177		
CG6683	1	119	118		
sle	1	67.2 (active)	101		
brk	1	197	120		
brk	2	102	152		
TwdlH	1	59.6 (active)	77		
CG14384	1	99.4	72.3		
CG11438	1	93.7	130		
CG14221	1	64.1 (active)	227		
CG15296	1	54.5 (active)	123		
Sgs8	1	82.8	93.3		
CG13870	1	140	72.4		
Dyb	1	63	178	214	115
Dyb	2	92.6	106		
eIF4G1	1	94.1	132		
Ctu2	1	110	112		
kni	1	91.6 (active)	82.1		
kni	2	102	112		
unpg	1	137	117		
CG15167	1	123	118		
CG43331	1	94.3	121		
CG30393	1	96.5	93.9		
CG32074	1	119	139		
CG11342	1	54.4	95.5		
CG6179	1	92.5	137		
Pif1	1	144	199		
CG5828	1	59.2 (active)	167		
Listericin	1	107	138		
Abca3	1	226	81.5		
Ir31a	1	85.5	238		
att-ORFB + DPCoAC	1	121 (active)	147		
Obp58d	1	188	239		
Rm62	1	146	160		
TotE	1	117	104		
Fa2h	1	149	172		
Fa2h	2	124	186		
CG17721	1	118	104		
Cpr65Ea	1	89.8	83.5		
Z600	1	99	138		
Pepck1	1	160	168		
msl-1	1	91	75.4		
Ge-1	1	74.7	115		
DIP-delta	1	112	78.8		
DIP-delta	2	109	76		
Afti	1	138	121		
lncRNA:CR31386	1	111	179		
lncRNA:CR31386	2	156	160		
CG10916	1	162	86.7		
CG42268	1	88.7	105		
CG42268	2	96.5	102		
CG42268	3	175	117		
I-2	1	81.7	92.8		
I-2	2	177	171		
CG13705	1	105	52.4		
CG13705	2	134	139		
ema	1	58.6	129		
CG11360	1	124	174		
Lnpk	1	156	153		
CG33346	1	129	184		
wapl	1	125	113		
Pkcdelta	1	67 (active)	84.9		
Pkcdelta	2	93.4	77.8		
Cdk2	1	107	250		

5 entries from above, set out differently:
| Gene | reagent | calcium signal, replicate 1 | calcium signal, replicate 2 | retest calcium signal, replicate 1 | retest calcium signal, replicate 2 |
| --- | --- | --- | --- | --- | --- |
| CG32074 | 1 | 119 | 139 | – | – |
| CG11342 | 1 | 54.4 | 95.5 | – | – |
| CG6179 | 1 | 92.5 | 137 | – | – |
| Pif1 | 1 | 144 | 199 | – | – |
| CG5828 | 1 | 59.2 (active) | 167 | – | – |
